The source of these data is publication PMC4279409.

No constants are given. Whether binding was seen depends on the method and setting. In cells and extracts the contact can be indirect. Some binding calls cover weakened binding; strength is not graded here.

For the experiment, the target named is T1, Chromobox homolog 8 (CBX8) (human (endogenous in CRC cells)) (UniProt Q9HC52).
T1 sequence: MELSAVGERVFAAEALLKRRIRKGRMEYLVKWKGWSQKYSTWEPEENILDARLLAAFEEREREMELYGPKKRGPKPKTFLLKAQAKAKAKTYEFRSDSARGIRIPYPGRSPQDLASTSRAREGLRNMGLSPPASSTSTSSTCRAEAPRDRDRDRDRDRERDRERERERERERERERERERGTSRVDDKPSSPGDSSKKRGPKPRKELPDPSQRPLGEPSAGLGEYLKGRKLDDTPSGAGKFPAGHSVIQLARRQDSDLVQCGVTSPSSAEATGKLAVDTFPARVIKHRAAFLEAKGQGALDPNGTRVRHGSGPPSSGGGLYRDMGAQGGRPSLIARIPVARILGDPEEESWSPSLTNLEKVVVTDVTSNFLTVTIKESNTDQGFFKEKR
As to the kind of experiment: co-IP; endogenous proteins; clarified CRC cell lysate in MCLB (50 mM Tris-HCl pH 8.0, 100 mM NaCl, 0.5 % Nonidet P-40, 5 mM EDTA, 2 mM DTT) incubated with anti-CBX8 antibody (Bethyl) 2 h at 4°C, then protein A/G-agarose; five washes; western blotting.

Turning to p53 (from UniProt P04637 1-393), the binding result is recorded as “binds”.
